This test addresses N-terminally His6-tagged ObgE protein (Escherichia coli Obg) (E. coli) (UniProt P42641). As to the kind of experiment: SEC-MALS; Superdex 200 5/150 GL increase; ObgE and YbiB alone at 1.5 mg/ml; YbiB and ObgE mixed 1:3 (20 and 60 μM); 20 mM HEPES pH 7.5, 150 mM NaCl, 5 mM MgCl2, 5% glycerol, 2 mM DTT; both purified. In general terms: In gel filtration, larger molecules generally elute earlier.

By UniProt entry, the sequences of proteins in these tests, tags left out.
UniProt P42641: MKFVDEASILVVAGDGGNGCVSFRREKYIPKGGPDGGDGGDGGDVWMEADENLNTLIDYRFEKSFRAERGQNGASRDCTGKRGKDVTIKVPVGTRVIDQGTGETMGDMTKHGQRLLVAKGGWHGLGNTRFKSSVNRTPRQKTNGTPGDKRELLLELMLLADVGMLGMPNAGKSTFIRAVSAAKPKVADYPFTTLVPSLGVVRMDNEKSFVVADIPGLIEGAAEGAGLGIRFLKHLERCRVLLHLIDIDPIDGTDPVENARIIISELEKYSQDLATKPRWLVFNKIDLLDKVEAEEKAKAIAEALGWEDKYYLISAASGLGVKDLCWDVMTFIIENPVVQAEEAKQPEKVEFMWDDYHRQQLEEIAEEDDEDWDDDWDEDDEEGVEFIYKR

No constants are given. Whether binding was seen depends on the method and setting.

Consider “N-terminally His6-tagged ObgE protein (Escherichia coli Obg) (from UniProt P42641 1-390) (enzyme)”, for which the binding result is on record as “no binding (tested: 1.5 mg/ml)”.

(Values after article PMC10123104.)
